The supplement of paper PMC10849652
The other results are listed elsewhere or left out.

The chains behind the UniProt entries cited, without tags or fusion partners. Where a name states a change or a piece, a line headed by the entry shows the natural chain unless it says otherwise.
UniProt P60903, whole entry, looked up: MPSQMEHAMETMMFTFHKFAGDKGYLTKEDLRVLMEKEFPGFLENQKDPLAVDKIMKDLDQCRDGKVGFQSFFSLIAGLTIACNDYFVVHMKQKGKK
UniProt Q9NTJ5: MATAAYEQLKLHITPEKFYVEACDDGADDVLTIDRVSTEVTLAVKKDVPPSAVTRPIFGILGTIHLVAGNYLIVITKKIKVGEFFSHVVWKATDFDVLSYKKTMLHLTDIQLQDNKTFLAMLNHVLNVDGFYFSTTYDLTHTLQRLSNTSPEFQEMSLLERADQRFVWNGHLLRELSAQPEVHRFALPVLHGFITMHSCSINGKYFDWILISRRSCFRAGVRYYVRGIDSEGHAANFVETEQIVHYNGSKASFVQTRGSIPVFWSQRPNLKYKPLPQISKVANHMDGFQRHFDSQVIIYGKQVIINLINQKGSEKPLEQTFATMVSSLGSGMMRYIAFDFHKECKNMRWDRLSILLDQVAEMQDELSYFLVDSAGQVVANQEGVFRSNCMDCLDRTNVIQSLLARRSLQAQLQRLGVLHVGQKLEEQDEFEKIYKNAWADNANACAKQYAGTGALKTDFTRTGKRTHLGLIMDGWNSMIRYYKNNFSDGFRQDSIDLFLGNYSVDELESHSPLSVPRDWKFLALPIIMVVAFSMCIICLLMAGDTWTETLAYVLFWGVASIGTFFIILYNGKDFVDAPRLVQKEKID
UniProt Q9NX18: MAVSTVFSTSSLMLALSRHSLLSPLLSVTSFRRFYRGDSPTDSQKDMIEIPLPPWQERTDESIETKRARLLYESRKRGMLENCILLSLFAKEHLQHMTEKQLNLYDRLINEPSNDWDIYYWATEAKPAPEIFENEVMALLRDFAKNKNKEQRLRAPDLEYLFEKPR
UniProt O15127: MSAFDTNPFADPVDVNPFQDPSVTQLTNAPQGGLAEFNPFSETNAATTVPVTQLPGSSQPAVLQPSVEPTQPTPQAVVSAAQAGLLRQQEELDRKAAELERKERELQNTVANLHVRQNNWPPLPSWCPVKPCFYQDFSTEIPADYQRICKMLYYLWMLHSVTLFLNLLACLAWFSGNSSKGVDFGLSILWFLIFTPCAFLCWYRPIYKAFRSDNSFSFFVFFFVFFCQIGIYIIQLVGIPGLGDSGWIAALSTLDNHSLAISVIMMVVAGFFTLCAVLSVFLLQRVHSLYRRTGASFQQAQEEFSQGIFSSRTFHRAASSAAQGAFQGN
UniProt P29034: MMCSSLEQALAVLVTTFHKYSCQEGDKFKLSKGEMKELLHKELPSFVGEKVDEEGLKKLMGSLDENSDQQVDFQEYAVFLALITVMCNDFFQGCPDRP
UniProt Q8IZE3: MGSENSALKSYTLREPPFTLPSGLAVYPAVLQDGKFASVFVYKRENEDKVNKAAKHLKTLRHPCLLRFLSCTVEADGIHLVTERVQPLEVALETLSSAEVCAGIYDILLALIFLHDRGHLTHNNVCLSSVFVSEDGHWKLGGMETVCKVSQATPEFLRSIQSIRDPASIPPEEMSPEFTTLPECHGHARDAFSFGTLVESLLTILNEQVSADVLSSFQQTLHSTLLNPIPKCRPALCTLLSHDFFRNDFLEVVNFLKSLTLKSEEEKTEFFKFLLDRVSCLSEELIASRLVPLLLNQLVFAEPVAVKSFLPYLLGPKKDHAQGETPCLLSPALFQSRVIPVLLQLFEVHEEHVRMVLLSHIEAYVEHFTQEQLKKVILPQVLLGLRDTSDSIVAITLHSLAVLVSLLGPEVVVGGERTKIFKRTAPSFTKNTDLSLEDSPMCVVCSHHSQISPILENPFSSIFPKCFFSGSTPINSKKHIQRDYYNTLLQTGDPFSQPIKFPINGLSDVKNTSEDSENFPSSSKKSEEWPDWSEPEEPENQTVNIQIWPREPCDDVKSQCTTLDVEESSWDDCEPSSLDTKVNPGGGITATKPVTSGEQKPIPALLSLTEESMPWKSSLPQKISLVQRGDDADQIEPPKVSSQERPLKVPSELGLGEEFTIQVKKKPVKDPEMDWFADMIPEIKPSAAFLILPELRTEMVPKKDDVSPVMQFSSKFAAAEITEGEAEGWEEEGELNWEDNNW
UniProt Q9UPN6: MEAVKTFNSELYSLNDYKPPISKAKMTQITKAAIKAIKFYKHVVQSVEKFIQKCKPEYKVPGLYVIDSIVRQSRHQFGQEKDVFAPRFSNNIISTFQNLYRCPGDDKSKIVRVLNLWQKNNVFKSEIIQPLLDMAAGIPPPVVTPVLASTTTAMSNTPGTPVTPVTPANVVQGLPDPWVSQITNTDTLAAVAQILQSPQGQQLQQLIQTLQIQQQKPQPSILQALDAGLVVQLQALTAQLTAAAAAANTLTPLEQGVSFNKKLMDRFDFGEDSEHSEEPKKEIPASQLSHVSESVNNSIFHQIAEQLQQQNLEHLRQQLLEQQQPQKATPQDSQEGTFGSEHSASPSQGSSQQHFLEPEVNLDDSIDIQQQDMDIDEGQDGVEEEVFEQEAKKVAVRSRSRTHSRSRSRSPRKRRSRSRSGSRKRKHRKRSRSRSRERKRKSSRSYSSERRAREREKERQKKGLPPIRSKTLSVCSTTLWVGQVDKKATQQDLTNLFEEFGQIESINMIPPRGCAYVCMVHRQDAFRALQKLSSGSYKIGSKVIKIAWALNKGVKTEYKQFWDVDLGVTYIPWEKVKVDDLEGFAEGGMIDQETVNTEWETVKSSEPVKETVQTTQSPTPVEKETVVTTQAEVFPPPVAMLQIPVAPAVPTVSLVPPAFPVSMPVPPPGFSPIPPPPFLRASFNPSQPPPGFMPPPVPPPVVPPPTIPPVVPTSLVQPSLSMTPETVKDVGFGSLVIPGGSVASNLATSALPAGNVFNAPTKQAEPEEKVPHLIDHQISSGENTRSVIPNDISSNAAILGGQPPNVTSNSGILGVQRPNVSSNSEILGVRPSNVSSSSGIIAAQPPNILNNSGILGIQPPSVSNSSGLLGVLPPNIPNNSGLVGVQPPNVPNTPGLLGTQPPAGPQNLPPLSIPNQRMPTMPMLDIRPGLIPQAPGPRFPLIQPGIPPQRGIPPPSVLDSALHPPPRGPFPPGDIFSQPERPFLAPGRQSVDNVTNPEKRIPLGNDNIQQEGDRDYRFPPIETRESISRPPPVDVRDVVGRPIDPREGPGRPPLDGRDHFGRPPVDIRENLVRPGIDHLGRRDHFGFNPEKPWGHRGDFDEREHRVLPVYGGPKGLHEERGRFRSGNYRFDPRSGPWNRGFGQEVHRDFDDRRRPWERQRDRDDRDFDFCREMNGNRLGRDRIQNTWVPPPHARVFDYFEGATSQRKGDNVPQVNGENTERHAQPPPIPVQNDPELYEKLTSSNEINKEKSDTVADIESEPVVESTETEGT
UniProt Q7L4I2: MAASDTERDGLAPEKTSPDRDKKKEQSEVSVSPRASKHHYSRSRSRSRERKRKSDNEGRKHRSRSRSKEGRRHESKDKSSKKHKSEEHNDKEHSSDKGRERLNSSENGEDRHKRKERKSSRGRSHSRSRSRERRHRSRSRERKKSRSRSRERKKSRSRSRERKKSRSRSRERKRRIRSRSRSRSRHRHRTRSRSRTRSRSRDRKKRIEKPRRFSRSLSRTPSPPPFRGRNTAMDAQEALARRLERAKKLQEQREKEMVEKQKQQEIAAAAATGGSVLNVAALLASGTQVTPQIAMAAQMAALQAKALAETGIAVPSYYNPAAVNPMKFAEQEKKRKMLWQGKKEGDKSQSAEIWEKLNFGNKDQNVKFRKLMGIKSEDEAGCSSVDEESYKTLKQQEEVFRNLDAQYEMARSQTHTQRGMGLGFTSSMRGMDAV
UniProt Q5VUM1: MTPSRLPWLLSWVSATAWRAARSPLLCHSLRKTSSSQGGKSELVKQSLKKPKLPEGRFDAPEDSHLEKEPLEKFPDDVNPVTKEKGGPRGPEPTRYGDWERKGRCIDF
UniProt Q9Y6Y8: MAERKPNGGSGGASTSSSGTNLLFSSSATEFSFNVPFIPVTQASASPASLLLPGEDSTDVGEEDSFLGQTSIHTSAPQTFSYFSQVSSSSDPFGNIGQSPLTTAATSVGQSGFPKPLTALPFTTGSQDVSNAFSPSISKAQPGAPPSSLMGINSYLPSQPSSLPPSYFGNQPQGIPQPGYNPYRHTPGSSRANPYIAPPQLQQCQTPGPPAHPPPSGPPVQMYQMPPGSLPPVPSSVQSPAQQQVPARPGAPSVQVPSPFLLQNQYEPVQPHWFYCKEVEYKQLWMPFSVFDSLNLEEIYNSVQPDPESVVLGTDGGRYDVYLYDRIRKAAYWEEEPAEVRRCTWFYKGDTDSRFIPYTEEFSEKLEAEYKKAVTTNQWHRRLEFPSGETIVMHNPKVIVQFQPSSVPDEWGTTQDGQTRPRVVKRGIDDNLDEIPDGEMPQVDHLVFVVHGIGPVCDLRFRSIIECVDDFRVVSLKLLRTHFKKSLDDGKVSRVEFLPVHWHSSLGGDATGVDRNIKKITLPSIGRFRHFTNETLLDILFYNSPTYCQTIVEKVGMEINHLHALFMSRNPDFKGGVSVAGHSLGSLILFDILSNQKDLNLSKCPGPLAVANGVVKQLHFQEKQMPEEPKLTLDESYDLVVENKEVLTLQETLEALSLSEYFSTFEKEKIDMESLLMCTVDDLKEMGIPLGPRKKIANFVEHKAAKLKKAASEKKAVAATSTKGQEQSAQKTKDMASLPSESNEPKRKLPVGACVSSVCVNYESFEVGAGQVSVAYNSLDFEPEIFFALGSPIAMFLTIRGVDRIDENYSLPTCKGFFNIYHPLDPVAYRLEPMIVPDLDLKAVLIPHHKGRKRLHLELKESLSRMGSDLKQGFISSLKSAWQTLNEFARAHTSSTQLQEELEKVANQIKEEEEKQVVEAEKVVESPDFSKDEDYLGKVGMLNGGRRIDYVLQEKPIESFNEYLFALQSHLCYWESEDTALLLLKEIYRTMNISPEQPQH
UniProt Q8WXD2: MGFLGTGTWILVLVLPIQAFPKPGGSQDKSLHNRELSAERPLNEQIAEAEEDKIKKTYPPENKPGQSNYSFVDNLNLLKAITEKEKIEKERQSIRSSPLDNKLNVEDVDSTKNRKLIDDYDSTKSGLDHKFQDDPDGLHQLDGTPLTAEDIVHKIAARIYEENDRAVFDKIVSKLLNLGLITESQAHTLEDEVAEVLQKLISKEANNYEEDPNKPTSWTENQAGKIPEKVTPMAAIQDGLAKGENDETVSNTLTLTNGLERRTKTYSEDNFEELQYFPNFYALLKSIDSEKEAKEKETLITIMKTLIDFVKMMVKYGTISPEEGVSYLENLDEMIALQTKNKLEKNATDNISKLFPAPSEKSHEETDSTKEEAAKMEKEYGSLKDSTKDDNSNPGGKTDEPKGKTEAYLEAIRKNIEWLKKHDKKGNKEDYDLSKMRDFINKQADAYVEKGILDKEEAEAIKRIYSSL
UniProt O94885: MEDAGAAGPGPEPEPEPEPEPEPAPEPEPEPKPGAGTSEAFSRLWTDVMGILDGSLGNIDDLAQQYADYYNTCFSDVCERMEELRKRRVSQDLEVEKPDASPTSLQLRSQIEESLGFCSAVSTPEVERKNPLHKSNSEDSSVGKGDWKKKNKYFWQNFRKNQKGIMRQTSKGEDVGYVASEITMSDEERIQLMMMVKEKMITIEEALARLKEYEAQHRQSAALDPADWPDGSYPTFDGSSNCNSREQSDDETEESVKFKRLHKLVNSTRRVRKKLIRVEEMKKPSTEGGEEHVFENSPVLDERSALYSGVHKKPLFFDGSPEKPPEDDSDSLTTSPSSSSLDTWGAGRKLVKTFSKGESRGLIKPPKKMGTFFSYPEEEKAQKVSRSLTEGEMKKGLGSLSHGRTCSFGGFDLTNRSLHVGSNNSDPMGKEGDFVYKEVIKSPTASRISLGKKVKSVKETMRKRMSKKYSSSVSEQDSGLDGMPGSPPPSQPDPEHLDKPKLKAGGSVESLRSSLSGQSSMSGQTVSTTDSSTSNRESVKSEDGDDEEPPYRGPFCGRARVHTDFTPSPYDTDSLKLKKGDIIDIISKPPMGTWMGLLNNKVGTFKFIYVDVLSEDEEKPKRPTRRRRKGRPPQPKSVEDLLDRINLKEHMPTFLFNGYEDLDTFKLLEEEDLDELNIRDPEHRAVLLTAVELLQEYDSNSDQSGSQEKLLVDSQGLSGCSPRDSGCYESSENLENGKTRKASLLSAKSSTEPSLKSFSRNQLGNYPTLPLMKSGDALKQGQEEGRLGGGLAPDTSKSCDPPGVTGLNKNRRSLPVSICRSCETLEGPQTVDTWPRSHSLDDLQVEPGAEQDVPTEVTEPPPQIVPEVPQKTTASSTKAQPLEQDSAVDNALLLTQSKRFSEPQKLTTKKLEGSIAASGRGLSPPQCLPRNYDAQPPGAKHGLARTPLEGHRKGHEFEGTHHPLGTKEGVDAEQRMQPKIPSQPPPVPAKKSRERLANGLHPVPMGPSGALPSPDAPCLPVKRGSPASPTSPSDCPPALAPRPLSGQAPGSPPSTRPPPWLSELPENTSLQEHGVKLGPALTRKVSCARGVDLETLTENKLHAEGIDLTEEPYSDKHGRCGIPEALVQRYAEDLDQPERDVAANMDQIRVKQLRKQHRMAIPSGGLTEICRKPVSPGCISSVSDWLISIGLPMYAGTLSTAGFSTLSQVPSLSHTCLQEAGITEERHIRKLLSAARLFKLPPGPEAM

compound: CC[C@@H]1C(=O)N(C)c2cnc(Nc3ccc(C(=O)NC4CCN(C)CC4)cc3OC)nc2N1C1CCCC1; experiment: log2 fold change, soluble protein after heating vs DMSO (PISA); higher = thermal stabilisation; K562 cells, 10 uM, 30 min; active = over 0.2 and 3.5 SD of the protein, either way, in both replicates (recomputed)
Outline: (§1)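 K562 cells at 2×10^6 cells/mL were treated for 30 min with 10 μM compound, and aliquots were heated for 3 min over 48°C-58°C before pooling. Extraction used PBS with 0.5% NP-40 at 4°C, and soluble protein was the supernatant after 21,000xg for 90 min, measured by TMTpro 16plex LC-MS/MS with channel sums equalised. Thermal stability values, relative to control samples and from duplicates, are log2 fold changes.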

| Target | log2 fold change |
| --- | --- |
| S100A10 (UniProt P60903) | inactive: 0.284 |
| SAAL1 (UniProt Q96ER3) | inactive: -0.167 |
| SDCBP isoform 2 (UniProt O00560) | inactive: -0.015 |
| RUFY1 (UniProt Q96T51) | inactive: -0.145 |
| RUNX1 isoform 8 (UniProt Q01196) | inactive: -0.331 |
| SACM1L (UniProt Q9NTJ5) | inactive: -0.193 |
| S100A4 (UniProt P26447) | inactive: 0.212 |
| SART3, A0A499FI31 | inactive: -0.235 |
| SCD (UniProt O00767) | inactive: 0 |
| SDHAF2 (UniProt Q9NX18) | inactive: 0.089 |
| SCAMP2 (UniProt O15127) | inactive: -0.009 |
| SAMSN1 isoform 3 (UniProt Q9NSI8) | inactive: -0.069 |
| S100A2 (UniProt P29034) | inactive: -0.174 |
| SEC24A (UniProt O95486) | inactive: -0.077 |
| SCYL3 isoform 2 (UniProt Q8IZE3) | inactive: -0.114 |
| RRP36 (UniProt Q96EU6) | inactive: 0.217 |
| SCPEP1 (UniProt Q9HB40) | active: -0.608 |
| SEC31A (UniProt O94979) | inactive: -0.035 |
| SCAMP2 (UniProt H3BUB6) | inactive: -0.015 |
| SEC16A isoform 5 (UniProt O15027) | inactive: -0.058 |

| Target | log2 fold change |
| --- | --- |
| SCAF8 isoform 2 (UniProt Q9UPN6) | inactive: -0.065 |
| RUFY3 isoform 3 (UniProt Q7L099) | inactive: -0.135 |
| SDHB, A0A087WWT1 | inactive: -0.008 |
| RSRC2 (UniProt Q7L4I2) | inactive: 0.003 |
| SAFB2 (UniProt Q14151) | inactive: 0.018 |
| RSL1D1 (UniProt O76021) | inactive: 0.301 |
| RSPRY1 (UniProt Q96DX4) | inactive: 0.082 |
| SDHC (UniProt Q99643) | inactive: 0.042 |
| SDHAF4 (UniProt Q5VUM1) | inactive: 0.013 |
| RTF2 (UniProt Q9BY42) | inactive: -0.18 |
| SEC23IP (UniProt Q9Y6Y8) | inactive: -0.069 |
| SCAF11 (UniProt Q99590) | inactive: 0.145 |
| SCCPDH (UniProt Q8NBX0) | inactive: 0.083 |
| RRP9 (UniProt O43818) | inactive: 0.09 |
| SCG3 (UniProt Q8WXD2) | inactive: 0.04 |
| SEC23A (UniProt Q15436) | inactive: 0.149 |
| SCAMP3 isoform 2 (UniProt O14828) | inactive: -0.002 |
| RRP12 (UniProt Q5JTH9) | inactive: 0.246 |
| RSRC1 (UniProt Q96IZ7) | inactive: 0.01 |
| SASH1 (UniProt O94885) | inactive: -0.136 |

compound: CC[C@@H]1C(=O)N(C)c2cnc(Nc3ccc(C(=O)N[C@H]4CC[C@H](N5CCN(CC6CC6)CC5)CC4)cc3OC)nc2N1C(C)C [volasertib]; experiment: as above
Outline: as §1

| Target | log2 fold change |
| --- | --- |
| S100A10 (UniProt P60903) | inactive: -0.048 |
| SAAL1 (UniProt Q96ER3) | active: -0.245 |
| SDCBP isoform 2 (UniProt O00560) | inactive: -0.221 |
| RUFY1 (UniProt Q96T51) | active: -0.355 |
| RUNX1 isoform 8 (UniProt Q01196) | active: -0.434 |
| SACM1L (UniProt Q9NTJ5) | active: -0.534 |
| S100A4 (UniProt P26447) | inactive: -0.042 |
| SART3, A0A499FI31 | active: -0.557 |
| SCD (UniProt O00767) | inactive: 0.009 |
| SDHAF2 (UniProt Q9NX18) | inactive: 0.093 |
| SCAMP2 (UniProt O15127) | inactive: 0.052 |
| SAMSN1 isoform 3 (UniProt Q9NSI8) | inactive: -0.153 |
| S100A2 (UniProt P29034) | inactive: 0.087 |
| SEC24A (UniProt O95486) | active: -0.253 |
| SCYL3 isoform 2 (UniProt Q8IZE3) | active: -0.327 |
| RRP36 (UniProt Q96EU6) | inactive: 0.376 |
| SCPEP1 (UniProt Q9HB40) | active: -1.44 |
| SEC31A (UniProt O94979) | active: -0.354 |
| SCAMP2 (UniProt H3BUB6) | inactive: -0.006 |
| SEC16A isoform 5 (UniProt O15027) | inactive: -0.271 |

| Target | log2 fold change |
| --- | --- |
| SCAF8 isoform 2 (UniProt Q9UPN6) | inactive: -0.27 |
| RUFY3 isoform 3 (UniProt Q7L099) | inactive: -0.149 |
| SDHB, A0A087WWT1 | inactive: 0.125 |
| RSRC2 (UniProt Q7L4I2) | inactive: -0.032 |
| SAFB2 (UniProt Q14151) | inactive: 0.118 |
| RSL1D1 (UniProt O76021) | inactive: 0.399 |
| RSPRY1 (UniProt Q96DX4) | inactive: -0.001 |
| SDHC (UniProt Q99643) | inactive: 0.036 |
| SDHAF4 (UniProt Q5VUM1) | inactive: 0.075 |
| RTF2 (UniProt Q9BY42) | active: -0.45 |
| SEC23IP (UniProt Q9Y6Y8) | inactive: -0.005 |
| SCAF11 (UniProt Q99590) | inactive: 0.153 |
| SCCPDH (UniProt Q8NBX0) | inactive: 0.158 |
| RRP9 (UniProt O43818) | inactive: 0.148 |
| SCG3 (UniProt Q8WXD2) | inactive: 0.134 |
| SEC23A (UniProt Q15436) | inactive: -0.156 |
| SCAMP3 isoform 2 (UniProt O14828) | inactive: 0.052 |
| RRP12 (UniProt Q5JTH9) | inactive: 0 |
| RSRC1 (UniProt Q96IZ7) | inactive: 0.056 |
| SASH1 (UniProt O94885) | active: -0.308 |
